The nature of this data set: general procedure: solution-phase peptide synthesis; N-oxysuccinimide esters; N,N'-dicyclohexylcarbodiimide / N-oxybenzotriazole. The note with it: acetate; for final HPLC purity: whole synthesis, 220 nm.

*: point of attachment. Cbz = O=C(OCc1ccccc1)*; OBn = c1ccc(CO*)cc1

Under “coupling step”, Cbz-AE(OBn)D(OBn)G-OBn returned a step yield of 82%.

Under “late stage modification step”, alanyl-glutamyl-aspartyl-glycine registered a step yield of 95%. The “final HPLC purity” value reads like this: (run 1) 98.45%; (run 2) 98.5%.

Values taken from patent US20050004016A1 (priority 2000, published 2005).
